The target of data set [1] is T1, pentameric C-reactive protein (pCRP) (Homo sapiens) (UniProt P02741).
T1 sequence (looked up, limits assumed): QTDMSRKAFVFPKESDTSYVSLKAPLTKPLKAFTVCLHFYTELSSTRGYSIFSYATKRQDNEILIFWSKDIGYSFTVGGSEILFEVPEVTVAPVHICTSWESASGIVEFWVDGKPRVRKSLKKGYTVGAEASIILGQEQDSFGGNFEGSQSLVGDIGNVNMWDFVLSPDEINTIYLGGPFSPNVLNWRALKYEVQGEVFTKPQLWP
The experiment in a line: SPR. To be noted: 200 nM aptamer; specificity control; purified native protein; protein details: BBI Solutions Cat-P100-0; single-stranded DNA.

Data set [2] deals with T1, pentameric C-reactive protein (pCRP) (Homo sapiens). Put plainly: EMSA. The settings on record: capillary electrophoresis LIF mobility shift; no decrease of free aptamer peak; purified native protein; protein details: BBI Solutions Cat-P100-0; label: Alexa 488; single-stranded DNA; variant of AmC2.
Data set [3] shares this target. Put plainly: competition with a labelled probe. The settings on record: patient serum; mCRP reading 0 in samples with pCRP up to 390 mg/L; purified native protein; protein details: BBI Solutions Cat-P100-0; label: biotin; single-stranded DNA; variant of AmC2.

No signal at the amounts used counts as a negative. Protein sequences can lack the tags named with them.

Turning to “GCACCAGCATATTCGATTGGGAGCGCGGGGGAGAGTAGTGGGGAACGGTGGAGAGTTGGGCTAGTAGGTGCATCAG [AmC3]”, the binding result in data set [1] is recorded as “no binding”.
On the same count and under the same terms, as for “GCACCAGCATATTCGATTGGGAGGTGTGAACGTTATGTGGTAGAGAGATGGGTGGTGGGGCTAGTAGGTGCATCAG [AmC4]”, the entry is “no binding”.
With “GCACCAGCATATTCGATTGTGGCGGGTTGTGAAGGGTGGAGTATGGTCGTGTTGGTTGGGCTAGTAGGTGCATCAG [AmC2-488]”, the binding result in data set [2] is “no binding”.
With “GCACCAGCATATTCGATTGTGGCGGGTTGTGAAGGGTGGAGTATGGTCGTGTTGGTTGGGCTAGTAGGTGCATCAG [AmC2]”, the binding result in data set [1] was “no binding”.
On to “GCACCAGCATATTCGATTGTGGCGGGTTGTGAAGGGTGGAGTATGGTCGTGTTGGTTGGGCTAGTAGGTGCATCAG [biotin-AmC2]”, for which the binding result in data set [3] is recorded as “no binding”.

(Values after patent publication US20240036057A1, “DNA APTAMERS FOR THE DETECTION OF MONOMERIC CRP” (Universiteit Hasselt, published 2024).)
